The source of these data is the supplement of paper PMC3682954.

Values joined by “and” are separate entries in the source; they are usually repeats but may differ in a detail not shown here. Equal values may be shown once. Where a name gives a salt, the structure may show the parent alone. ± gives the standard deviation of the averaged measurements. The list shows a part of the results. Many values rest on one well or one pass, so single values are uncertain.

The test system of this experiment is RAW 264.7. Description: HMGB1-induced TNF-alpha production relative to HMGB1-stimulated control; higher = more TNF-alpha secretion (less inhibition). The conditions noted are these: stimulus: HMGB1 5 ug/ml, 18 h.
Where [1] appears, read: compound concentration: 1 ug/ml.

In the case of `CC[n+]1c(/C=C/C=C2/N(C)c3ccccc3C2(C)C)sc2ccccc21`, the “HMGB1-induced TNF-alpha production” value (compound concentration: 3 uM) was 109%.
On to `Cc1c(Cl)cccc1Nc1ccccc1C(=O)O`, for which, where the note is “compound concentration: 3 uM”, the “HMGB1-induced TNF-alpha production” value was 89.1%.
Take `Cc1c(Cl)cccc1Nc1ccccc1C(=O)O` [Tolfenamic acid]: the “HMGB1-induced TNF-alpha production” value (compound concentration: 3 uM) was 82.5 ± 20%.
For the compound `CCCSc1ccc2[nH]c(NC(=O)OC)nc2c1`, the “HMGB1-induced TNF-alpha production” value (compound concentration: 3 uM) came out at 112%.
For `CCCSc1ccc2[nH]c(NC(=O)OC)nc2c1` [Albendazole], the “HMGB1-induced TNF-alpha production” value (compound concentration: 3 uM) was 89.9 ± 4.8%.
In the case of `CO[C@H]1/C=C/O[C@@]2(C)Oc3c(C)c(O)c4c(O)c(c(/C=N/N5CCN(C)CC5)c(O)c4c3C2=O)NC(=O)/C(C)=C\C=C\[C@H](C)[C@H](O)[C@@H](C)[C@@H](O)[C@@H](C)[C@H](OC(C)=O)[C@@H]1C` [Rifampicin], the “HMGB1-induced TNF-alpha production” value by setting is: under setting [1], 58.7%; (compound concentration: 3 uM) 71.9 ± 16%.
Consider `CO[C@H]1/C=C/O[C@@]2(C)Oc3c(C)c(O)c4c(O)c(c(/C=N/N5CCN(C)CC5)c(O)c4c3C2=O)NC(=O)/C(C)=C\C=C\[C@H](C)[C@H](O)[C@@H](C)[C@@H](O)[C@@H](C)[C@H](OC(C)=O)[C@@H]1C`, for which the “HMGB1-induced TNF-alpha production” value (compound concentration: 3 uM) was determined as 92.4%.
On to `CC(C)NCC(O)c1ccc(O)c(O)c1` (racemic) [(±)-Isoproterenol hydrochloride], for which, for the setting “compound concentration: 3 uM”, the “HMGB1-induced TNF-alpha production” value stood at 53.3%.
`CC(C)NCC(O)c1ccc(O)c(O)c1` (racemic) [Isoproterenol (Rac)]: the “HMGB1-induced TNF-alpha production” value (compound concentration: 3 uM) stood at 80%.
Turning to `CC(C(=O)O)c1ccc(CC2CCCC2=O)cc1` (stereo not given) [loxoprofen], the “HMGB1-induced TNF-alpha production” value (compound concentration: 3 uM) amounted to 110%.
For `CC(C(=O)O)c1ccc(CC2CCCC2=O)cc1` (stereo not given), the “HMGB1-induced TNF-alpha production” value (compound concentration: 3 uM) was 119%.
Take `CC[C@H]1OC(=O)[C@H](C)[C@@H](O[C@H]2C[C@@](C)(OC)[C@@H](O)[C@H](C)O2)[C@H](C)[C@@H](O[C@@H]2O[C@H](C)C[C@H](N(C)C)[C@H]2O)[C@](C)(O)C[C@@H](C)C(=O)[C@H](C)[C@@H](O)[C@]1(C)O` [(-)-Erythromycin hydrate]: the “HMGB1-induced TNF-alpha production” value under setting [1] is 56.9%.
For `CC[C@H]1OC(=O)[C@H](C)[C@@H](O[C@H]2C[C@@](C)(OC)[C@@H](O)[C@H](C)O2)[C@H](C)[C@@H](O[C@@H]2O[C@H](C)C[C@H](N(C)C)[C@H]2O)[C@](C)(O)C[C@@H](C)C(=O)[C@H](C)[C@@H](O)[C@]1(C)O` [Erythromycin], where the note is “compound concentration: 3 uM”, the “HMGB1-induced TNF-alpha production” value is 100%.
As to `CC[C@H]1OC(=O)[C@H](C)[C@@H](O[C@H]2C[C@@](C)(OC)[C@@H](O)[C@H](C)O2)[C@H](C)[C@@H](O[C@@H]2O[C@H](C)C[C@H](N(C)C)[C@H]2O)[C@](C)(O)C[C@@H](C)C(=O)[C@H](C)[C@@H](O)[C@]1(C)O`, the “HMGB1-induced TNF-alpha production” value (compound concentration: 3 uM) is 74.9% and 76.7%.
For the compound `CC1=C(/C=C/C(C)=C/C=C/C(C)=C/C=C/C=C(C)/C=C/C=C(C)/C=C/C2=C(C)CCCC2(C)C)C(C)(C)CCC1` [beta-CAROTENE], where the note is “compound concentration: 3 uM”, the “HMGB1-induced TNF-alpha production” value is 104%.
Still for that read-out and setting: in the case of `c1ccc(CC2=NCCN2)cc1` [Tolazoline hydrochloride] it was 44%; in that of `c1ccc(CC2=NCCN2)cc1`, 95.3%; in that of `NCCCCC(=O)O` [5-Aminovaleric acid hydrochloride], 73.3%.
As to `CC(C)(Oc1ccc(CCNC(=O)c2ccc(Cl)cc2)cc1)C(=O)O` [Bezafibrate], the “HMGB1-induced TNF-alpha production” value (compound concentration: 3 uM) is 74 ± 9.5%.
`CC(C)(Oc1ccc(CCNC(=O)c2ccc(Cl)cc2)cc1)C(=O)O`: for the setting “compound concentration: 3 uM”, the “HMGB1-induced TNF-alpha production” value was 81.1%.
Take `OCCN1CCN(CCCN2c3ccccc3Sc3ccc(C(F)(F)F)cc32)CC1` [Fluphenazine dihydrochloride]: the “HMGB1-induced TNF-alpha production” value (compound concentration: 3 uM) was 80.2 ± 12%.
With `OCCN1CCN(CCCN2c3ccccc3Sc3ccc(C(F)(F)F)cc32)CC1` [Fluphenazine], where the note is “compound concentration: 3 uM”, the “HMGB1-induced TNF-alpha production” value came to 98.7%.
Turning to `OCCN1CCN(CCCN2c3ccccc3Sc3ccc(C(F)(F)F)cc32)CC1`, for the setting “compound concentration: 3 uM”, the “HMGB1-induced TNF-alpha production” value was 91 ± 9.4%.
On the same count and under the same terms, in the case of `Clc1ccc2c(c1)C(N1CCNCC1)=Nc1ccccc1O2` [Amoxapine] it was 76.1 ± 6.3%; in that of `Clc1ccc2c(c1)C(N1CCNCC1)=Nc1ccccc1O2`, 82.2%.
In the case of `CC(C)[C@@H](C)/C=C/[C@@H](C)[C@H]1CC[C@H]2C3=CC=C4C[C@@H](O)CC[C@]4(C)[C@H]3CC[C@]12C` [Ergosterol], under setting [1], the “HMGB1-induced TNF-alpha production” value amounted to 68.5%.
Turning to `O=C1c2ccccc2C(=O)C1c1ccccc1` [Phenindione], the “HMGB1-induced TNF-alpha production” value (compound concentration: 3 uM) turned out to be 75%.
Same read-out and setting: in the case of `O=C1c2ccccc2C(=O)C1c1ccccc1` it was 93.9%; in that of `O=C(O)CCc1nc(-c2ccccc2)c(-c2ccccc2)o1` [Oxaprozin], 117 ± 35%; in that of `O=C(O)CCc1nc(-c2ccccc2)c(-c2ccccc2)o1`, 98.4 ± 5.2%.
On to `Oc1c(Br)cc(Br)c2cccnc12`, for which the “HMGB1-induced TNF-alpha production” value (compound concentration: 3 uM) was 133%.
In the case of `CCC(=O)O[C@H]1CC[C@H]2[C@@H]3CCc4cc(O)ccc4[C@H]3CC[C@]12C`, the “HMGB1-induced TNF-alpha production” value (compound concentration: 3 uM) stood at 101%.
Take `COc1ccc(CC(C)NCC(O)c2ccc(O)c(NC=O)c2)cc1` (stereo not given) [Formoterol fumarate]: the “HMGB1-induced TNF-alpha production” value (compound concentration: 3 uM) was determined as 89.8%.
On to `COc1ccc(CC(C)NCC(O)c2ccc(O)c(NC=O)c2)cc1` (stereo not given) [Formoterol], for which, where the note is “compound concentration: 3 uM”, the “HMGB1-induced TNF-alpha production” value worked out at 66.9%.
Turning to `COc1ccc(CC(C)NCC(O)c2ccc(O)c(NC=O)c2)cc1` (stereo not given), the “HMGB1-induced TNF-alpha production” value (compound concentration: 3 uM) came to 70.5%.
As to `CC(C)C[C@H](NC(=O)[C@H](Cc1ccccc1)NC(=O)c1cnccn1)B(O)O` [Bortezomib], the “HMGB1-induced TNF-alpha production” value (compound concentration: 3 uM) was 8%.
On to `O=C(OCCN1CCOCC1)C1(c2ccccc2)CCCCC1`, for which the “HMGB1-induced TNF-alpha production” value (compound concentration: 3 uM) was determined as 106%.
Consider `O=C1C(c2c(O)[nH]c3ccccc23)=Nc2ccccc21`, for which the “HMGB1-induced TNF-alpha production” value (compound concentration: 3 uM) worked out at 100%.
With `CCCCN1CCC(n2c(=O)[nH]c3ccccc32)CC1` [NS 521 oxalate], under “compound concentration: 3 uM”, the “HMGB1-induced TNF-alpha production” value amounted to 123%.
